Reference: PMC9558048
No constants are given. Whether binding was seen depends on the method and setting. Binding seen in cells or lysates may run through a third protein. Some binding calls cover weakened binding; strength is not graded here. Sequences can lack the tags named with a protein.

T1: MBP-Isc10-S97A (S. cerevisiae) (UniProt P32645)
T1 sequence: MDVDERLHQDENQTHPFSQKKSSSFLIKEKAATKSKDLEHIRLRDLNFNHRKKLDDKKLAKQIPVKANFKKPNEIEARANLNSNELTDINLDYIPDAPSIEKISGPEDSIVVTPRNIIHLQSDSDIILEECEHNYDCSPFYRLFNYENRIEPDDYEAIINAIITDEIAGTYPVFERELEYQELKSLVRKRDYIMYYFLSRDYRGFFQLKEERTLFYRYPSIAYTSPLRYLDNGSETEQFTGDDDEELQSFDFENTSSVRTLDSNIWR

T2: MBP-Isc10^1-170 (S. cerevisiae) (UniProt P32645)
T2 sequence: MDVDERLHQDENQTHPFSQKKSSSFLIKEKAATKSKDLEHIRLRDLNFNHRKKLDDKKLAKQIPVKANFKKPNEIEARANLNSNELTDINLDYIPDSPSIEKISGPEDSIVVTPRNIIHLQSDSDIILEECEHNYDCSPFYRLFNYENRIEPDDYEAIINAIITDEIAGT

T3: MBP-Isc10^181-267 (S. cerevisiae) (UniProt P32645)
T3 sequence: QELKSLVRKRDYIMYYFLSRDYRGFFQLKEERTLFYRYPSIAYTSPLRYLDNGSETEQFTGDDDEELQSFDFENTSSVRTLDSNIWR

T4: MBP-Isc10^1-246 (S. cerevisiae) (UniProt P32645)
T4 sequence: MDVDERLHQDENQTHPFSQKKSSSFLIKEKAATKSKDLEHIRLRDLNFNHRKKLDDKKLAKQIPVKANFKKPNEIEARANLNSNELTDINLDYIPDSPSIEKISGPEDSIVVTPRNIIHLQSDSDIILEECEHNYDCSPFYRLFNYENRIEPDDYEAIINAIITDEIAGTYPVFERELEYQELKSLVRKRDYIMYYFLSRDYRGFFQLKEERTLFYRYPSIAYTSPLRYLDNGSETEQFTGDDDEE


How the values were obtained:
[1] = target: T1, MBP-Isc10-S97A (S. cerevisiae); assay: pull-down; MBP-Isc10 forms coexpressed with Smk1, Ssp2^KAD-GST and Cak1 in E. coli BL-21 DE3; soluble extract bound to amylose beads at 4 °C, washed with lysis buffer (25 mM Tris-Cl pH 7.4, 5 mM MgCl2, 300 mM NaCl, 1 mM DTT, 0.5% NP-40); bound Smk1 and Ssp2 (GST) detected by immunoblot
[2] = target: T2, MBP-Isc10^1-170 (S. cerevisiae); assay: as above
[3] = target: T3, MBP-Isc10^181-267 (S. cerevisiae); assay: as above
[4] = target: T4, MBP-Isc10^1-246 (S. cerevisiae); assay: as above
[5] = target: T2, MBP-Isc10^1-170 (S. cerevisiae); assay: pull-down; MBP-Isc10 forms coexpressed in bacteria with Smk1 alone or with Ssp2 alone; material retained on amylose-agarose beads analysed by immunoblot
[6] = target: T3, MBP-Isc10^181-267 (S. cerevisiae); assay: as above

binding [1] | binding [2] | binding [3] | binding [4] | binding [5] | binding [6] | Binder
binds | binds | binds | binds | binds | binds | Ssp2^KAD-GST (Ssp2 residues 137-371 fused to glutathione-S-transferase) (domain or fragment, UniProt Q08646 137-371) KGKVYSEESEVVDEKTAGSQNPALLKTRSISLNDIPRGTGISSVLSQVRGGSLERIIVYRYDTPERSLHKVDLFFLNYEGAQSFMRYAKTNIFKVNGVQLKPEWIFLESTYENIMKEQSVNRIIEEEKFISRCLIVKKSSTTAMPNKSNLNKGQTLENIDIQELEKDFQNFGEVLEITPIVSRKLCVSIFFYDISSAMRAMEEYEQKGSYLYNKYFKTWTIWYGKDITDQPCIDL
binds | binds | binds | binds | binds | binds | Smk1 (enzyme, UniProt P41808 1-388) MNCTLTDNTRAINVASNLGAPQQRTIFAKERISIPGYYEIIQFLGKGAYGTVCSVKFKGRSPAARIAVKKISNIFNKEILLKRAIRELKFMNFFKGHKNIVNLIDLEIVTSSPYDGLYCYQELIDYDLAKVIHSSVQLSEFHIKYFLYQILCGLKYIHSADVIHRDLKPGNILCTLNGCLKICDFGLARGIHAGFFKCHSTVQPHITNYVATRWYRAPELLLSNQPYSKSVDIWAVGCILAEFYARKPVFMGRDSMHQIFEIIKVLGTPDKDILIKFGTIKAWNLGKNSNNPVYKKIPWSNIFPFASHEAINLIESLLHWDSTHRLNVEQAISHPFLNEVRKPDDEPVCLQGPFDFTYESELNSMSKLRDYLVEEVKNFKTDLSSSSL
